Assay results: the supplement of paper PMC10735217
Counter-ions that a name gives are not always drawn. Some of the results follow. Single values are uncertain here, since repeats match poorly.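 Human kidney-derived cells stably carry a construct in which eight TEAD-binding elements drive luciferase, measured by luminescence in a drug-repurposing library screen. A hit is any compound whose signal exceeds the plate mean by more than five robust Z scores.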

Tested on: HEK293A TEAD-LUC reporter
Assay: TEAD-luciferase reporter activity (YAP activation), robust Z score vs plate; higher = stronger YAP/TEAD activation
Conditions: 24 h

Structure (SMILES): COC1=C(c2ccccc2)C(CC(=O)O)OC1=O (configuration not stated)
- TEAD-luciferase reporter activity (compound concentration: 200 nM): inactive: -1.48
- TEAD-luciferase reporter activity (compound concentration: 2 uM): inactive: 0.332
- TEAD-luciferase reporter activity (compound concentration: 10 uM): inactive: 1.46

Structure (SMILES): CC(C)=CCC/C(C)=C/CC/C(C)=C/CC/C(C)=C/CC/C(C)=C/CC/C(C)=C/CC/C(C)=C/CC1=C(C)C(=O)c2ccccc2C1=O [Menaqui-7]
- TEAD-luciferase reporter activity (compound concentration: 200 nM): inactive: 0.587

Structure (SMILES): CC(C)=CCC/C(C)=C/CC/C(C)=C/CC/C(C)=C/CC/C(C)=C/CC/C(C)=C/CC/C(C)=C/CC1=C(C)C(=O)c2ccccc2C1=O [Menaqui  -7]
- TEAD-luciferase reporter activity (compound concentration: 10 uM): inactive: 2.51

Structure (SMILES): CC(C)=CCC/C(C)=C/CC/C(C)=C/CC/C(C)=C/CC/C(C)=C/CC/C(C)=C/CC/C(C)=C/CC1=C(C)C(=O)c2ccccc2C1=O [Menaqui   -7]
- TEAD-luciferase reporter activity (compound concentration: 2 uM): inactive: -0.494

Structure (SMILES): COc1cc2ncnc(Nc3cccc(Br)c3)c2cc1OC
- TEAD-luciferase reporter activity (compound concentration: 200 nM): inactive: -0.573
- TEAD-luciferase reporter activity (compound concentration: 2 uM): inactive: -0.919
- TEAD-luciferase reporter activity (compound concentration: 10 uM): inactive: -0.411

Structure (SMILES): CC(C)(COC(=O)c1cccnc1)[C@@H](OC(=O)c1cccnc1)C(=O)NCCC(=O)NCCSSCCNC(=O)CCNC(=O)[C@H](OC(=O)c1cccnc1)C(C)(C)COC(=O)c1cccnc1 [Derpanicate]
- TEAD-luciferase reporter activity (compound concentration: 200 nM): inactive: -1.66
- TEAD-luciferase reporter activity (compound concentration: 2 uM): inactive: -0.434
- TEAD-luciferase reporter activity (compound concentration: 10 uM): inactive: -0.614

Structure (SMILES): COC(=O)N[C@H](C(=O)N1CCC[C@H]1c1nc(-c2ccc3cc(-c4ccc5[nH]c([C@@H]6CCCN6C(=O)[C@@H](NC(=O)OC)C(C)C)nc5c4)ccc3c2)c[nH]1)C(C)C [Ravidasvir]
- TEAD-luciferase reporter activity (compound concentration: 200 nM): inactive: 1.21
- TEAD-luciferase reporter activity (compound concentration: 2 uM): inactive: 0.814
- TEAD-luciferase reporter activity (compound concentration: 10 uM): inactive: 2.25

Structure (SMILES): CCCCc1nc2cc(-c3cccc[n+]3[O-])c(C)nc2n1Cc1ccc(-c2ccccc2-c2nnn[nH]2)cc1
- TEAD-luciferase reporter activity (compound concentration: 200 nM): inactive: 2.07
- TEAD-luciferase reporter activity (compound concentration: 2 uM): inactive: -1.52
- TEAD-luciferase reporter activity (compound concentration: 10 uM): inactive: 1.83

Structure (SMILES): CN(C)CC(O)Cc1cccc(Cl)c1 (configuration not stated)
- TEAD-luciferase reporter activity (compound concentration: 200 nM): inactive: -0.55
- TEAD-luciferase reporter activity (compound concentration: 2 uM): inactive: -0.0968
- TEAD-luciferase reporter activity (compound concentration: 10 uM): inactive: -1.39

Structure (SMILES): CC(CC(=O)O)NC(=O)CN1CCCCCC1=O (configuration not stated)
- TEAD-luciferase reporter activity (compound concentration: 200 nM): inactive: -1.22
- TEAD-luciferase reporter activity (compound concentration: 2 uM): inactive: 0.503
- TEAD-luciferase reporter activity (compound concentration: 10 uM): inactive: -0.501

Structure (SMILES): CN1c2ccccc2Sc2ccc(CC(=O)O)cc21
- TEAD-luciferase reporter activity (compound concentration: 200 nM): inactive: 0.25
- TEAD-luciferase reporter activity (compound concentration: 2 uM): inactive: -0.463
- TEAD-luciferase reporter activity (compound concentration: 10 uM): inactive: -0.601

Structure (SMILES): CCOC(=O)COc1cccc([C@@H]2CCC[C@@H](NCC(O)c3cccc(Cl)c3)C2)c1 (some centres not stated)
- TEAD-luciferase reporter activity (compound concentration: 200 nM): inactive: 0.703
- TEAD-luciferase reporter activity (compound concentration: 2 uM): inactive: -0.269
- TEAD-luciferase reporter activity (compound concentration: 10 uM): inactive: -0.612

Structure (SMILES): CC(=O)c1ccc([C@H]2C[C@@]3(C)[C@@H](CC[C@@]3(O)C(F)(F)C(F)(F)F)[C@@H]3CCC4=CC(=O)CCC4=C32)cc1 [Lonaprisan]
- TEAD-luciferase reporter activity (compound concentration: 200 nM): inactive: 0.616
- TEAD-luciferase reporter activity (compound concentration: 2 uM): inactive: 2.21
- TEAD-luciferase reporter activity (compound concentration: 10 uM): inactive: 2.7

Structure (SMILES): Nc1c2c(nc3c1CCC3)CCCC2 [ipidacrine hydrochloride]
- TEAD-luciferase reporter activity (compound concentration: 2 uM): inactive: -1.42

Structure (SMILES): Nc1c2c(nc3c1CCC3)CCCC2
- TEAD-luciferase reporter activity (compound concentration: 200 nM): inactive: -2.24
- TEAD-luciferase reporter activity (compound concentration: 10 uM): inactive: 0.0489

Structure (SMILES): O=C1Nc2ccccc2CC12CCCN(CC1CCCCC1)C2 (configuration not stated)
- TEAD-luciferase reporter activity (compound concentration: 200 nM): inactive: -0.654
- TEAD-luciferase reporter activity (compound concentration: 10 uM): inactive: 1.76

Structure (SMILES): CC(=O)Oc1cccc2sc(-c3ccc(C)cc3)nc12
- TEAD-luciferase reporter activity (compound concentration: 200 nM): inactive: -0.899
- TEAD-luciferase reporter activity (compound concentration: 2 uM): inactive: 0.735
- TEAD-luciferase reporter activity (compound concentration: 10 uM): inactive: -0.348

Structure (SMILES): COc1cccc(CCN(C)CCCC(C#N)(c2ccc(OC)c(OC)c2)C(C)C)c1 (configuration not stated)
- TEAD-luciferase reporter activity (compound concentration: 200 nM): inactive: -0.24
- TEAD-luciferase reporter activity (compound concentration: 2 uM): inactive: -1.28
- TEAD-luciferase reporter activity (compound concentration: 10 uM): inactive: -1.01

Structure (SMILES): COc1c2occc2cc2ccc(=O)oc12 [methoxsalen, Toronto]
- TEAD-luciferase reporter activity (compound concentration: 2 uM): inactive: -1.2

Structure (SMILES): COc1c2occc2cc2ccc(=O)oc12 [Methoxsalen298-81-7]
- TEAD-luciferase reporter activity (compound concentration: 200 nM): inactive: 1.2
- TEAD-luciferase reporter activity (compound concentration: 10 uM): inactive: 0.97

Structure (SMILES): NCCCCCC(=O)O [6-Aminocaproic acid]
- TEAD-luciferase reporter activity (compound concentration: 200 nM): inactive: -1.16
- TEAD-luciferase reporter activity (compound concentration: 10 uM): inactive: 0.542

Structure (SMILES): CCc1cccc2cc(C(O)CNC(C)(C)C)oc12 (configuration not stated) [bufuralol]
- TEAD-luciferase reporter activity (compound concentration: 200 nM): inactive: 0.283
- TEAD-luciferase reporter activity (compound concentration: 2 uM): inactive: -2.06
- TEAD-luciferase reporter activity (compound concentration: 10 uM): inactive: -1.52

Structure (SMILES): COc1ccccc1N1CCN(CCC2CCc3ccccc3C2=O)CC1 (configuration not stated)
- TEAD-luciferase reporter activity (compound concentration: 200 nM): inactive: -0.378
- TEAD-luciferase reporter activity (compound concentration: 2 uM): inactive: -2.24
- TEAD-luciferase reporter activity (compound concentration: 10 uM): inactive: 1.19

Structure (SMILES): O=C(O)Cc1ccc(-c2ccccc2)cc1 [felbinac]
- TEAD-luciferase reporter activity (compound concentration: 200 nM): inactive: 3.02
- TEAD-luciferase reporter activity (compound concentration: 2 uM): inactive: 2.09
- TEAD-luciferase reporter activity (compound concentration: 10 uM): inactive: -0.378

Structure (SMILES): NC(=O)NC(CC(=O)O)C(=O)O (configuration not stated) [urazamide]
- TEAD-luciferase reporter activity (compound concentration: 200 nM): inactive: -0.244
- TEAD-luciferase reporter activity (compound concentration: 2 uM): inactive: -1.92
- TEAD-luciferase reporter activity (compound concentration: 10 uM): inactive: 0.16

Structure (SMILES): NC(=O)NC(=O)Cc1ccccc1
- TEAD-luciferase reporter activity (compound concentration: 200 nM): inactive: -0.252
- TEAD-luciferase reporter activity (compound concentration: 2 uM): inactive: 2.43
- TEAD-luciferase reporter activity (compound concentration: 10 uM): inactive: 0.376

Structure (SMILES): NCCCC(N)C(=O)O (configuration not stated) [ornithine phenylacetate]
- TEAD-luciferase reporter activity (compound concentration: 200 nM): inactive: 0.558
- TEAD-luciferase reporter activity (compound concentration: 2 uM): inactive: -1.49
- TEAD-luciferase reporter activity (compound concentration: 10 uM): inactive: 1.41

Structure (SMILES): CN(C)S(=O)(=O)c1cc2c(c3c1CCCC3)NC(=O)/C2=N/O
- TEAD-luciferase reporter activity (compound concentration: 200 nM): inactive: -0.731
- TEAD-luciferase reporter activity (compound concentration: 2 uM): inactive: 0.787
- TEAD-luciferase reporter activity (compound concentration: 10 uM): inactive: -0.00192

Structure (SMILES): C[C@@]12CCC[C@H]1[C@@H]1CC[C@H]3CCCC[C@]3(C)[C@H]1CC2 [(5alpha)-androstane]
- TEAD-luciferase reporter activity (compound concentration: 200 nM): inactive: 3.88
- TEAD-luciferase reporter activity (compound concentration: 2 uM): inactive: -2.02
- TEAD-luciferase reporter activity (compound concentration: 10 uM): inactive: -2.52

Structure (SMILES): CNCCc1ccccn1 [betahistine, Labopharm]
- TEAD-luciferase reporter activity (compound concentration: 200 nM): inactive: -2.3
- TEAD-luciferase reporter activity (compound concentration: 2 uM): inactive: -1.91
- TEAD-luciferase reporter activity (compound concentration: 10 uM): inactive: -0.633

Structure (SMILES): CN[C@@H](CC(C)C)C(=O)NCCCC(c1ccc(F)cc1)c1ccc(F)cc1
- TEAD-luciferase reporter activity (compound concentration: 200 nM): inactive: -0.439
- TEAD-luciferase reporter activity (compound concentration: 2 uM): inactive: 0.78
- TEAD-luciferase reporter activity (compound concentration: 10 uM): inactive: 4.87

Structure (SMILES): Cc1c(OC=C2NCCN2)ccc(Cl)c1NS(C)(=O)=O [Dabuzalgron]
- TEAD-luciferase reporter activity (compound concentration: 200 nM): inactive: -1.39
- TEAD-luciferase reporter activity (compound concentration: 2 uM): inactive: -2.27
- TEAD-luciferase reporter activity (compound concentration: 10 uM): inactive: 1.51

Structure (SMILES): Cc1nnc(C(=O)NC(C)(C)C2=NC(C(=O)NCc3ccc(F)cc3)C(=O)C(=O)N2C)o1 (configuration not stated) [raltegravir]
- TEAD-luciferase reporter activity (compound concentration: 200 nM): inactive: 4.25
- TEAD-luciferase reporter activity (compound concentration: 2 uM): inactive: -1.46
- TEAD-luciferase reporter activity (compound concentration: 10 uM): inactive: 0.715

Structure (SMILES): CN(C)C(=O)CCn1nc(Nc2ccc3c(c2)OC(F)(F)O3)nc1-c1ccncc1
- TEAD-luciferase reporter activity (compound concentration: 200 nM): inactive: 0.643
- TEAD-luciferase reporter activity (compound concentration: 2 uM): inactive: -0.842
- TEAD-luciferase reporter activity (compound concentration: 10 uM): inactive: 2.05

Structure (SMILES): CC(C)=CCN1Cc2c(Cl)ccc3[nH]c(=S)n(c23)C[C@@H]1C
- TEAD-luciferase reporter activity (compound concentration: 200 nM): inactive: -1.01
- TEAD-luciferase reporter activity (compound concentration: 2 uM): inactive: 1.14
- TEAD-luciferase reporter activity (compound concentration: 10 uM): inactive: 0.298

Structure (SMILES): CC(C)c1oc2ccc(C#N)cc2c1-c1ccccn1
- TEAD-luciferase reporter activity (compound concentration: 200 nM): inactive: -0.614
- TEAD-luciferase reporter activity (compound concentration: 2 uM): inactive: 0.321
- TEAD-luciferase reporter activity (compound concentration: 10 uM): inactive: -0.454

Structure (SMILES): Oc1c(Cc2ccccc2)ccc2ccccc12
- TEAD-luciferase reporter activity (compound concentration: 200 nM): inactive: -0.25
- TEAD-luciferase reporter activity (compound concentration: 2 uM): inactive: 2.37
- TEAD-luciferase reporter activity (compound concentration: 10 uM): inactive: 2.08
